Data: article PMC5754208
These are yes or no findings as the source states them, for the method shown. In cells and extracts the contact can be indirect. Some results given as binding are weak or reduced against the parent protein; the word gives no strength. Sequences can lack the tags named with a protein.

Amino acid sequences for entries named in this document (tags omitted).
UniProt Q23356: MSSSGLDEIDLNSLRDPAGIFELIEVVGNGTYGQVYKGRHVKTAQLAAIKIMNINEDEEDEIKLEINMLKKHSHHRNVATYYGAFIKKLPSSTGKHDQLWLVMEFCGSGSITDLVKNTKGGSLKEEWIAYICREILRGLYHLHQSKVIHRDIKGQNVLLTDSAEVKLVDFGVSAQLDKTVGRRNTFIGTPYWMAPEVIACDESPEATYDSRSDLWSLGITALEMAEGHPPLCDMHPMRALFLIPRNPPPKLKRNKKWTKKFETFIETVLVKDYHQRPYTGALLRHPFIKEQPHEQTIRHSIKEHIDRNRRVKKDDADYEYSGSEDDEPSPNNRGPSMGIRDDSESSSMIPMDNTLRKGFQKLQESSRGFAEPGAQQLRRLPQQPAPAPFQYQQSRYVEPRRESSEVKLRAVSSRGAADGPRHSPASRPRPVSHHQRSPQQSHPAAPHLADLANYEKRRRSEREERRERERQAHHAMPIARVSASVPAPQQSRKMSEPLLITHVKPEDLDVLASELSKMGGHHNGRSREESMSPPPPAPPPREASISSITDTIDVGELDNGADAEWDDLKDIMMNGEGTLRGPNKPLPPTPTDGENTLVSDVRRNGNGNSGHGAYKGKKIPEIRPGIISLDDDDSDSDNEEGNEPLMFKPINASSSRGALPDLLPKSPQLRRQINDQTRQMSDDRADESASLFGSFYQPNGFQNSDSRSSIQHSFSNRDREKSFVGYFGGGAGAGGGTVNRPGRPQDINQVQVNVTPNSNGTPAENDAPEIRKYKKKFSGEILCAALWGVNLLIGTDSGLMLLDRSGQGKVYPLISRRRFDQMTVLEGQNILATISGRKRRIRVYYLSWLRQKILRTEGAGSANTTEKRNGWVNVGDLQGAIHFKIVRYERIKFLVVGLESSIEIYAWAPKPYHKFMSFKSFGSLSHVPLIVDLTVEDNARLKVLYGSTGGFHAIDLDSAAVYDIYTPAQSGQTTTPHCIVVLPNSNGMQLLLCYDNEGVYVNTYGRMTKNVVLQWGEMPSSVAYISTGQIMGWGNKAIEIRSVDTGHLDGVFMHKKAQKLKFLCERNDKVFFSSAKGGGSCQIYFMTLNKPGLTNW

Biological target: T1, FLAG-NSY-1 (C. elegans) (UniProt Q21029)
T1 sequence: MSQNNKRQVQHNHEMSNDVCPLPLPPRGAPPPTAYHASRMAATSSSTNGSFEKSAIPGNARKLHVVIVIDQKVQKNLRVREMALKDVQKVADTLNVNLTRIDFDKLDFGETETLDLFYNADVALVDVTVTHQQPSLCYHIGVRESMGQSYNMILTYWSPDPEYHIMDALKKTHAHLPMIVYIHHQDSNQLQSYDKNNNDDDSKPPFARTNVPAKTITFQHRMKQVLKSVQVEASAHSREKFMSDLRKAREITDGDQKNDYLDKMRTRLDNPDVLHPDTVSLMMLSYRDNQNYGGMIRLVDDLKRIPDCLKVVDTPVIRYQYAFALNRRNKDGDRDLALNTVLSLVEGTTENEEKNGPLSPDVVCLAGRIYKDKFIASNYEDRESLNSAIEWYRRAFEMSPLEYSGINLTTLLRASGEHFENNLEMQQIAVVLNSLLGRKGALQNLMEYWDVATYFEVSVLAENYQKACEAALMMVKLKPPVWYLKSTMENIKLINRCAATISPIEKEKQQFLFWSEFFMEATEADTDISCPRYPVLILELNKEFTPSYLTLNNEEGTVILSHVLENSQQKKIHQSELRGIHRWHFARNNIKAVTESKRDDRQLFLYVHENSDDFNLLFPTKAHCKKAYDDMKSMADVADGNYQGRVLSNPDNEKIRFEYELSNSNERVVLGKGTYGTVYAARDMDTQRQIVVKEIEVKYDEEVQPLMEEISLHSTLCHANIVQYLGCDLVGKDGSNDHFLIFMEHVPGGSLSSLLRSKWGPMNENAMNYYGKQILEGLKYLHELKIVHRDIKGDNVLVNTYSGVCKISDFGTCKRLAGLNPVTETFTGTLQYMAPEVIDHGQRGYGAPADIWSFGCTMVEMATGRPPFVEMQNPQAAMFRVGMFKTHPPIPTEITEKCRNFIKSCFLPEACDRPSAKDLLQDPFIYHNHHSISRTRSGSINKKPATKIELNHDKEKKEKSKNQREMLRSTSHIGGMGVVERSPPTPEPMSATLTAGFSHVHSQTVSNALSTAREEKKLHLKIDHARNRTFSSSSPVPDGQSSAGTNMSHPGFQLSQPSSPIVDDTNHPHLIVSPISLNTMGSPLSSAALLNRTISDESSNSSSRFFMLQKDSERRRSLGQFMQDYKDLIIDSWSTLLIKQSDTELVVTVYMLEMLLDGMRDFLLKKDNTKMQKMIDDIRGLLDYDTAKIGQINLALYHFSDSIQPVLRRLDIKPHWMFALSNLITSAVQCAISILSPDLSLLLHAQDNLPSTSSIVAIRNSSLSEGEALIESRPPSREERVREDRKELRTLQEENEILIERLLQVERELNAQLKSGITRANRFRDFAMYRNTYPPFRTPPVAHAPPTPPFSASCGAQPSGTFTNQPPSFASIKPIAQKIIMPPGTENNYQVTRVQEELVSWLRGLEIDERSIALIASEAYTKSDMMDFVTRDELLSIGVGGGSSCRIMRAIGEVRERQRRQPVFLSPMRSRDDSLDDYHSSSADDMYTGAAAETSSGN
Test: co-IP; HEK 293-T cells co-transfected with FLAG and HA tagged kinases; lysed in 0.1% NP-40 lysis buffer (50 mM Tris pH 7.5, 150 mM NaCl, 10% glycerol, 1 mM DTT); FLAG-NSY-1 immunoprecipitated with anti-FLAG (M2) and protein G agarose at 4°C; anti-HA immunoblot

## MIG-15-HA (from UniProt Q23356 1-1096) (enzyme)
  binding: binds

B1: HA-JKK-1 (enzyme, UniProt G5EDT6 1-435)
chain: MENVCFQQRLRDLETRVRKWKFLKLGLTEVRLRPRDRRSTSVDQKHKECSSTSSSPQHQRPNNIGYLTSPMERKFTPLSMKPSPSRRDTEKDALEYEFLEGYKKSGTLEIDGEKQVVDPNEIHIISLLGSGSCGVVESATVRSKLMAVKTMYKNDNKENLKRILRDVRIMSMCNSPFIVTSYGYFMFDSSVKICMQIMSACCEKLLRRIYHSKLDFFPEFVAGHIVYSAISALDYLKEKHSIIHRDIKPSNILFDDSGNVKLCDFGISGFMTDSMAHSKSAGCPPYMAPERLTIETNSKYDVRSDVWSLGITVYQLVTGLYPFPLNDMEFTTLTIIANLNLPSPSLREETKRSFSPLFIEFLDLCLRKDVRERPEYRQLMKHDFYLDYDPASGSAYKFKAINGKCNQVADWFVDVIRLSKTEDELKSIPNTPCVN
  binding: binds
